From article doi:10.1101/250936

Sequences of proteins named here, by UniProt entry; tags and fusion partners are left off. A change or cut given only in a name is not applied to a line headed by its entry.
UniProt P46940: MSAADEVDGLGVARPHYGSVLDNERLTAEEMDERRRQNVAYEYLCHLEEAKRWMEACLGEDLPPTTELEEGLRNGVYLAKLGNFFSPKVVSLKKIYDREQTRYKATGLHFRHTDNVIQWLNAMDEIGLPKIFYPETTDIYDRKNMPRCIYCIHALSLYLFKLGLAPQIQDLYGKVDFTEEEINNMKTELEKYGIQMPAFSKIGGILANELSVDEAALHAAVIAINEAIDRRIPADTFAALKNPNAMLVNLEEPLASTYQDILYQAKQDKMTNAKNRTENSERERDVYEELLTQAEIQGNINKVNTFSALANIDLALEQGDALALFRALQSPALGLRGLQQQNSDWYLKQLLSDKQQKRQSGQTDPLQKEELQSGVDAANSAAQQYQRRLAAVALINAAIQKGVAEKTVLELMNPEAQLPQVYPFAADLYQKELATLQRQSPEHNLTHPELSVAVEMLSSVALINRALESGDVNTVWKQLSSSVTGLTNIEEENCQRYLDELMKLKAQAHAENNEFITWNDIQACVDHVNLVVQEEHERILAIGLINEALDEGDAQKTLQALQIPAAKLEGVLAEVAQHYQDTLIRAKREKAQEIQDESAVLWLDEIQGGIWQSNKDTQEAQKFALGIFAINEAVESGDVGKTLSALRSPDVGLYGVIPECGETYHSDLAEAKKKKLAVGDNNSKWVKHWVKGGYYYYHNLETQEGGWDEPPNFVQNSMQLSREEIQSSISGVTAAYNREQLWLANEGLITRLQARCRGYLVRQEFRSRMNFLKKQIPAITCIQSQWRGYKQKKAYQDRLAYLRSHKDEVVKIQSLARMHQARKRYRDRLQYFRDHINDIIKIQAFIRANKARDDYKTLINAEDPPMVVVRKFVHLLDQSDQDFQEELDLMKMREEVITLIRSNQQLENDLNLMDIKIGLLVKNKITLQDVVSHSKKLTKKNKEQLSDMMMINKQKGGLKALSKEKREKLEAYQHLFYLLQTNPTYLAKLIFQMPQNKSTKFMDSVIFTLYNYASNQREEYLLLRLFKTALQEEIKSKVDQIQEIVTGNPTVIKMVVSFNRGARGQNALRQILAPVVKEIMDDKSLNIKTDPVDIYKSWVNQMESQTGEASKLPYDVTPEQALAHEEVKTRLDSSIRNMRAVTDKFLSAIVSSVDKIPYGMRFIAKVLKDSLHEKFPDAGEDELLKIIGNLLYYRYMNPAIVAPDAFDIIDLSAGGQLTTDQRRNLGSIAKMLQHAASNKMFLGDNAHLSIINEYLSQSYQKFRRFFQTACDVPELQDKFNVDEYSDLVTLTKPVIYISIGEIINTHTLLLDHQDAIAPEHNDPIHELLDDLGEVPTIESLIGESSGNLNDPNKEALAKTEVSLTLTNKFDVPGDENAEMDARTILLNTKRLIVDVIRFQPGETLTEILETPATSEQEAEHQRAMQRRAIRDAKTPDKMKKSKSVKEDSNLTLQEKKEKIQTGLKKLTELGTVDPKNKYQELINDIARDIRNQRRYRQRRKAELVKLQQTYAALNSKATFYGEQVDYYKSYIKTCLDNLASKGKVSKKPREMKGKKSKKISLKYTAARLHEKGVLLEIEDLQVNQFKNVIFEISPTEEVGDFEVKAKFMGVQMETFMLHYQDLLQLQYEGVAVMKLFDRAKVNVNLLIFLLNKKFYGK
UniProt P27986: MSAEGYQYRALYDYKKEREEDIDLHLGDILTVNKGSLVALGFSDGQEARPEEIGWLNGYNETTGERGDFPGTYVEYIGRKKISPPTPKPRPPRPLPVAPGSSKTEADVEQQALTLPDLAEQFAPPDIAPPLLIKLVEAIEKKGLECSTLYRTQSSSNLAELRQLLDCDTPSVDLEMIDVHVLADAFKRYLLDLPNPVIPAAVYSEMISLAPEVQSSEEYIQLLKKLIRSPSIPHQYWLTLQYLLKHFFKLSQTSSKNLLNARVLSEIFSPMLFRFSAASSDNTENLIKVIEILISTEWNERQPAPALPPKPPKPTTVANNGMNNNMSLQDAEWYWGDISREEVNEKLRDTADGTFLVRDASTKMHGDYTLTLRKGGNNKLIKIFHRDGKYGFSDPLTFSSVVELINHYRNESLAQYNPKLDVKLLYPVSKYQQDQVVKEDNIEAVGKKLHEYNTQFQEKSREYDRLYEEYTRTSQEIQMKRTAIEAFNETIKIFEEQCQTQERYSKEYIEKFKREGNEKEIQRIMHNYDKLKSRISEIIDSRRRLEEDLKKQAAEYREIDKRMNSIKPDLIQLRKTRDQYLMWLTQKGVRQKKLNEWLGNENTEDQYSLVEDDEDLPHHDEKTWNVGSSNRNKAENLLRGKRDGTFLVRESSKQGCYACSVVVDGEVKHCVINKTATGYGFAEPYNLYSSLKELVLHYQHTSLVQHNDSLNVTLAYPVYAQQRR

Legend:
[1] = biological target: Myc-tagged IQ3 motif deleted IQGAP1 (IQGAP1^ΔIQ3) (UniProt P46940); test: co-IP
[2] = biological target: Myc-tagged IQ3 motif deleted IQGAP1 (IQGAP1^ΔIQ3) (UniProt P46940); test: proximity ligation
[3] = biological target: Myc-tagged IQ3 motif deleted IQGAP1 (IQGAP1^ΔIQ3) (UniProt P46940); test: proximity ligation; remark: listed apart in the source

| binding [1] | binding [2] | binding [3] | Substance |
| --- | --- | --- | --- |
| binds | binds | binds | Epidermal growth factor receptor (EGFR) (from UniProt P00533 25-1210) |
| binds | – | binds | PI3K regulatory subunit p85α (from UniProt P27986 1-724) |

No constants are given. Whether binding was seen depends on the method and setting. In cells and extracts the contact can be indirect. Binding can be weak; no strength is given.
